Results deposited as PubChem BioAssay AID1508588 (Peter MacCallum Cancer Centre, 2020).

Purpose: 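Genome-wide search for knock-downs that heighten vemurafenib action in melanoma cells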 (primary screen)
Cell system: human WM266.4 melanoma cells (BRAF V600 mutant)
Reagent: siRNA pool against human genes, 40 nM
Timing: 96 h from transfection to read-out
Treatment: vemurafenib 300 nM (about IC25), added 48 h after transfection, for 48 h; comparison arm got DMSO vehicle only
Read-out: 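Cell gain (DAPI nuclei at end minus before drug, mean of two replicates) and medium lactate by absorbance per cell, both as ratio to non-targeting siRNA, also grouped into fold-change classes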
Reading the numbers: cell gain with vemurafenib: higher = more cell gain than with non-targeting siRNA; lactate per cell with vemurafenib: higher = more lactate made per cell
Call rule: 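a knock-down counts as enhancing when its fold-change classes with vehicle and with vemurafenib, taken together, show a stronger drug effect on cell gain or lactate per cell; exact class pairs not stated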
Calls: active = enhances vemurafenib effect; inactive = no enhancement seen
In all, the deposit lists about 18,000 reagents; shown is a part drawn at random. Of all reagents, 790 (4.4%) got an active call. 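Calls rest on a combination of fold-change classes in drug and vehicle arms, not all shown here.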 Entries without a mark were called inactive.

target,cell gain with vemurafenib,lactate per cell with vemurafenib
TTC16 (tetratricopeptide repeat domain 16),0.86,0.67
PFDN5 (prefoldin subunit 5),0.7,0.68
BHMT2 (betaine--homocysteine S-methyltransferase 2),0.15,1.88
TSPYL2 (TSPY like 2),0.92,0.58
"LRIT3 (leucine rich repeat, Ig-like and transmembrane domains 3)",0.81,0.96
PRMT3 (protein arginine methyltransferase 3),0.92,0.5
WSB1 (WD repeat and SOCS box containing 1),0.45,2.02
FBF1 (Fas binding factor 1),0.99,1.04
SLC38A3,0.2,0.12
TMEM121B (transmembrane protein 121B),0.26,1.12
PABPC1L2A (poly(A) binding protein cytoplasmic 1 like 2A),0.26,2.21
ADGRB2 (adhesion G protein-coupled receptor B2),0.29,0.71
SERBP1 (SERPINE1 mRNA binding protein 1),0.79,1.25
SLC9A3,0.46,0.96
NXPH3 (neurexophilin 3),0.45,1.16
SETD3,0.38,1.67
ABCC1,0.82,0.74
CALM3 (calmodulin 3),0.43,1.46
IGF1 (insulin like growth factor 1),0.54,1.58
KBTBD12 (kelch repeat and BTB domain containing 12),0.81,0.78
KCNK9 (potassium two pore domain channel subfamily K member 9),0.79,1.31
SLC25A32,0.64,2.01
NLGN4Y (neuroligin 4 Y-linked),0.6,1.19
PROSER1 (proline and serine rich 1),-0.16,1.88
CXADR (CXADR cell adhesion molecule),0.9,0.69
"LSM1 (LSM1 homolog, mRNA degradation associated)",0.97 (active),0.44
ADISSP (adipose secreted signaling protein),0.47,1.75
ARID5A (AT-rich interaction domain 5A),0,0
S100A11 (S100 calcium binding protein A11),0.6,0.98
OR5K3 (olfactory receptor family 5 subfamily K member 3),1,0.67
ALDH3B1 (aldehyde dehydrogenase 3 family member B1),0.37,0.43
MCRIP1 (MAPK regulated corepressor interacting protein 1),0.45,0.82
PALMD (palmdelphin),0.73,0.64
FOLR2 (folate receptor beta),0.34,0.74
ASCC1 (activating signal cointegrator 1 complex subunit 1),0.47,1.06
SPIC (Spi-C transcription factor),0.92,0.86
FICD (FIC domain protein adenylyltransferase),0.36,0.34
TNIP2 (TNFAIP3 interacting protein 2),0.54,0.6
USP16 (ubiquitin specific peptidase 16),0.44,0.8
COPE (coat protein complex I subunit epsilon),0.33,1.28
"CDON (cell adhesion associated, oncogene regulated)",0.93,0.76
NDUFA2 (NADH:ubiquinone oxidoreductase subunit A2),0.5,1.77
OLAH (oleoyl-ACP hydrolase),0.53,1.6
EPC2 (enhancer of polycomb 2),0.3 (active),0.26
SLC35H1,0.55,1.2
SPATA31A3 (SPATA31 subfamily A member 3),1.03,0.46
THAP11 (THAP domain containing 11),0.39,1.68
ZDHHC13 (zDHHC palmitoyltransferase 13),0.37,0.82
ARL9 (ARF like GTPase 9),0.47,0.44
MEPCE (methylphosphate capping enzyme),0.27,2.34
TFF2 (trefoil factor 2),0.67,0.8
ADCY10 (adenylate cyclase 10),0.87,0.86
CDH22 (cadherin 22),0.47,1.8
RASSF2 (Ras association domain family member 2),0.4,1.01
MYCBPAP (MYCBP associated protein),0.13,1.27
MFNG (MFNG O-fucosylpeptide 3-beta-N-acetylglucosaminyltransferase),0.45,0.57
TALDO1 (transaldolase 1),0.77,0.94
